Results are given in words; binding and its absence hold for the method and conditions named. Binding seen in cells or lysates may run through a third protein. Some entries that bind do so weakly or less than the wild type.

Amino acid sequences for entries named in this document (tags omitted).
UniProt P22363: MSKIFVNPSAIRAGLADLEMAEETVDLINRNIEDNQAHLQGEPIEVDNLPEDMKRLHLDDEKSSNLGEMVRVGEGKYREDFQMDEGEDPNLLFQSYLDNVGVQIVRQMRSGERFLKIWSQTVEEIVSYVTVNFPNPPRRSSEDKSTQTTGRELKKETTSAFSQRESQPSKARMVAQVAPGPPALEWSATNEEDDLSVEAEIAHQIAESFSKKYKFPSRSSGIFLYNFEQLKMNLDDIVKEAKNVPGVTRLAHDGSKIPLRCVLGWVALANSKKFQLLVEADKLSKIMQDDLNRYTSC
UniProt P42224: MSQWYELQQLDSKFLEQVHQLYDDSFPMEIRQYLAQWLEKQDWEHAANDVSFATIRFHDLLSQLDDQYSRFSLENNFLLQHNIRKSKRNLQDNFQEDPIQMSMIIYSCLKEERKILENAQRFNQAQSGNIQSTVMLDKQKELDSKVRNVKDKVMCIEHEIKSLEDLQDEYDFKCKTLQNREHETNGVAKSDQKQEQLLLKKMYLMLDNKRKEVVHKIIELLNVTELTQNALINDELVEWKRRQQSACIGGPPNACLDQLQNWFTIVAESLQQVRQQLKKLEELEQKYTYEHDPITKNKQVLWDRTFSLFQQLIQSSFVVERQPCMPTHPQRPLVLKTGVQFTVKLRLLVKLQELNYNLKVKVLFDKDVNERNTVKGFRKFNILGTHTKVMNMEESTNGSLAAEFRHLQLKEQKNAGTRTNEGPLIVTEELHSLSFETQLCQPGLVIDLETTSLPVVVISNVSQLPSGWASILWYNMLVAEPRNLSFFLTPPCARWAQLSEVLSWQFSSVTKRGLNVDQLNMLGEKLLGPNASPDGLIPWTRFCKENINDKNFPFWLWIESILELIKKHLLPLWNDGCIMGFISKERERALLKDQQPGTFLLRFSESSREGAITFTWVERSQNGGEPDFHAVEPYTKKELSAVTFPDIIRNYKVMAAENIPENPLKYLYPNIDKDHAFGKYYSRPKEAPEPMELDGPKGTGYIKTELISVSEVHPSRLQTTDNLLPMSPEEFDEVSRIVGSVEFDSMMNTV

This experiment has as its target GFP-fused full-length wildtype P-protein (phosphoprotein) of rabies virus challenge virus standard (CVS) strain (rabies virus (RABV), strain CVS) (UniProt P22363). In words: co-IP.

In the case of “Signal transducer and activator of transcription 1 (STAT1), endogenous (from UniProt P42224 1-750)”, the binding entry was “binds”.

(Values after paper PMC7480851.)
